Assay results reported in PubChem BioAssay AID330 (DTP/NCI, 2004).
The list shows only some results of the screen, not a fair sample: it is rich in T/C values a quarter to a half above the control, in often repeated tests (any T/C) and in doses without a T/C. Other doses and runs of a compound stand elsewhere. T/C is the treated group as % of the vehicle group. Some doses have a count of surviving animals in place of a T/C: the source files T/C as zero there, which appears to mark a toxic dose or a test without result, not a measured value. Some doses without a T/C left all or most animals alive at the check, yet need not have been tolerated: survival well below the control is almost never listed, so the zero probably covers shortened survival too. Counts of survivors are from the toxicity check (mostly the fifth day) where no day follows; animals may have died later. Schedule codes are those of the source, read here as Q, the interval in days (D) or hours (H), X, the number of doses. Some molecules as drawn cover several salts, stereoisomers or complexes of the source; a dose is that of the sample tested. Some entries hold several experiments; the results are listed from low to high. Where survival is the endpoint, this PubChem deposit counts one and a half times the control or more as active, and values a quarter to a half above the control carry no call in these data; other NCI protocols may use other cut-offs. Some T/C values are followed by the survivors on the day toxicity was checked, most often the fifth; where none is given, no animal had died by that day.

Tested on: P388 leukemia ip, CD2F1 mice, survival T/C
Assay: NCI In Vivo Anticancer Drug Screen. Data for tumor model P388 Leukemia (intraperitoneal) in CD2F1 (CDF1) mice
Conditions: T/C endpoint: median survival time, higher T/C = longer survival
[1] = dose: 240.0 mg/kg/injection, schedule: Q01DX005 (ip), vehicle: Klucel (hydroxypropylcellulose) (HPC)
[2] = dose: 400.0 mg/kg/injection, schedule: Q04DX003 (ip), vehicle: Klucel (hydroxypropylcellulose) (HPC)
[3] = dose: 400.0 mg/kg/injection, schedule: Q01DX009 (ip), vehicle: saline with Tween-80
[4] = dose: 200.0 mg/kg/injection, schedule: Q01DX009 (ip), vehicle: saline
[5] = dose: 50.0 mg/kg/injection, schedule: Q01DX009 (ip), vehicle: saline
[6] = dose: 100.0 mg/kg/injection, schedule: Q01DX009 (ip), vehicle: saline
[7] = dose: 100.0 mg/kg/injection, schedule: Q01DX005 (ip), vehicle: Klucel (hydroxypropylcellulose) (HPC)
[8] = dose: 200.0 mg/kg/injection, schedule: Q01DX005 (ip), vehicle: Klucel (hydroxypropylcellulose) (HPC)
[9] = dose: 50.0 mg/kg/injection, schedule: Q01DX005 (ip), vehicle: saline with Tween-80
[10] = dose: 100.0 mg/kg/injection, schedule: Q01DX005 (ip), vehicle: saline with Tween-80
[11] = dose: 200.0 mg/kg/injection, schedule: Q01DX005 (ip), vehicle: saline with Tween-80
[12] = dose: 50.0 mg/kg/injection, schedule: Q01DX009 (ip), vehicle: saline with Tween-80
[13] = dose: 100.0 mg/kg/injection, schedule: Q01DX009 (ip), vehicle: saline with Tween-80
[14] = dose: 25.0 mg/kg/injection, schedule: Q01DX009 (ip), vehicle: saline
[15] = dose: 400.0 mg/kg/injection, schedule: Q01DX009 (ip), vehicle: saline
[16] = dose: 100.0 mg/kg/injection, schedule: Q01DX009 (ip), vehicle: Klucel (hydroxypropylcellulose) (HPC)

Cc1ccoc1OP(=O)(N(C)C)N(C)C was tested, and the survivor count (dose: 60.0 mg/kg/injection, schedule: Q01DX005 (ip), vehicle: saline) was 4 of 6, the survivor count (dose: 120.0 mg/kg/injection, schedule: Q01DX005 (ip), vehicle: saline) was 0 of 6 and the survivor count (dose: 240.0 mg/kg/injection, schedule: Q01DX005 (ip), vehicle: saline) was 0 of 6.

For Nc1ccc2[nH]c3cnccc3c2c1, the survivor count (dose: 200.0 mg/kg/injection, schedule: Q01DX009 (ip), vehicle: other) was 1 of 3.

With COc1c2c(c(OC)c3c1C(=O)C(=O)C=C3O)OCO2 the survivor count [1] was 0 of 6.

Cc1ccc(OP(=O)(Oc2ccc(C)cc2)Oc2ccc(C)cc2)cc1.Cc1ccc(OP(=O)(Oc2ccc(C)cc2)Oc2ccc(C)cc2)cc1.Cc1ccc(OP(=O)(Oc2ccc(C)cc2)Oc2ccc(C)cc2)cc1.Cc1ccc(OP(=O)(Oc2ccc(C)cc2)Oc2ccc(C)cc2)cc1.[O-][Cl+3]([O-])([O-])O.[Zn+2] was tested, and the survivor count [2] was 4 of 6.

For O=[N+]([O-])c1nc(Br)n[nH]1, the survivor count (dose: 400.0 mg/kg/injection, schedule: Q04DX002 (ip), vehicle: water) was 0 of 6.

In the case of c1ccc(-c2c(-c3ccccc3)[c+]2-c2ccccc2)cc1, the survivor count (dose: 400.0 mg/kg/injection, schedule: Q01DX001 (ip), vehicle: gum acacia) is reported as 4 of 5.

With Cc1cc2ccccc2c2c(C)c3cccc[n+]3cc12 the survivor count (dose: 50.0 mg/kg/injection, schedule: Q04DX003 (ip), vehicle: other) was 0 of 3 and the survivor count (dose: 100.0 mg/kg/injection, schedule: Q04DX003 (ip), vehicle: other) was 0 of 3.

CC1=Nc2ccc([N+](=O)[O-])cc2N=C(C)C1 was tested, and the survivor count [3] was 5 of 6.

For CCOC(=O)Cn1cnc2cc(Cl)c([N+](=O)[O-])cc2c1=O, the T/C [2] was 130 % of control.

For COCCC(=NC(C)(C)C)Nc1c(Cl)cccc1Cl, the survivor count [4] was 4 of 6.

For CCCOc1cccc2c1C(=O)c1c(O)c3c(c(O)c1C2=O)C[C@@](O)(C(C)=O)C[C@@H]3OC1CC(N)C(O)C(C)O1 (stereo partly drawn), the T/C (dose: 25.0 mg/kg/injection, schedule: Q04DX003 (ip), vehicle: water) was 142 % of control.

With CCC(C)N(CC(C)C)CC(C)(O)CNc1cc(OC)cc2cccnc12 (stereo not drawn) the survivor count (dose: 100.0 mg/kg/injection, schedule: Q01DX005 (ip), vehicle: saline) was 3 of 5 and the survivor count (dose: 200.0 mg/kg/injection, schedule: Q01DX005 (ip), vehicle: saline) was 0 of 5.

For CCCCCCCCCC[N+]1(CC)CCCCC1, the survivor count [5] was 0 of 6, the survivor count [6] was 0 of 6 and the survivor count [4] was 0 of 6.

For O=C1C(Cl)=CC(=NS(=O)(=O)c2ccccc2)C=C1Cl, the survivor count (dose: 12.5 mg/kg/injection, schedule: Q04DX003 (ip), vehicle: saline with Tween-80) was 2 of 6 and the survivor count (dose: 25.0 mg/kg/injection, schedule: Q04DX003 (ip), vehicle: saline with Tween-80) was 1 of 6.

With N[C@@H](Cc1c[nH]c2ccccc12)C(=O)Nc1nncs1 the T/C (dose: 200.0 mg/kg/injection, schedule: Q04DX002 (ip), vehicle: saline) was 133 % of control, the T/C (dose: 400.0 mg/kg/injection, schedule: Q04DX002 (ip), vehicle: saline) was 138 % of control and the T/C (dose: 400.0 mg/kg/injection, schedule: Q04DX002 (ip), vehicle: suspension in saline) was 142 % of control.

With COC(=O)[C@]12CCC(C)(C)C[C@H]1C1=CC[C@@H]3[C@@]4(C)C[C@H](O)[C@H](OC5OC(CO)C(O)C(O)C5O)C(CO)(CO)[C@@H]4CC[C@@]3(C)[C@]1(C)C[C@H]2O (stereo partly drawn) the survivor count (dose: 25.0 mg/kg/injection, schedule: Q01DX005 (ip), vehicle: Klucel (hydroxypropylcellulose) (HPC)) was 2 of 6, the survivor count (dose: 50.0 mg/kg/injection, schedule: Q01DX005 (ip), vehicle: Klucel (hydroxypropylcellulose) (HPC)) was 0 of 6 and the survivor count [7] was 0 of 6. The survivor count [8] was 0 of 6.

In the case of Cc1cc(N=Nc2ccc(NC(=O)c3ccc(N)cc3)cc2C)ccc1N=Nc1ccc2cc(S(=O)(=O)O)cc(S(=O)(=O)O)c2c1, the survivor count (dose: 400.0 mg/kg/injection, schedule: Q01DX005 (ip), vehicle: suspension in saline) is reported as 0 of 6.

For Cc1cccc(=O)[n-]1.Cc1cccc(=O)[n-]1.Cc1cccc(=O)[n-]1.Cc1cccc(=O)[n-]1.[Cu+].[Cu+].[Cu+].[Cu+], the survivor count (dose: 200.0 mg/kg/injection, schedule: Q04DX002 (ip), vehicle: Klucel (hydroxypropylcellulose) (HPC)) was 0 of 6 and the survivor count (dose: 400.0 mg/kg/injection, schedule: Q04DX002 (ip), vehicle: Klucel (hydroxypropylcellulose) (HPC)) was 0 of 6.

For COc1ccc(-c2c(-c3ccccc3)oc(/N=C/c3ccccc3)c2-c2ccccc2)cc1, the survivor count [9] was 6 of 6, the survivor count [10] was 6 of 6 and the survivor count [11] was 6 of 6.

C/C(=N\NC(=S)N1CCCC1)c1cnccn1 was tested, and the survivor count [9] was 1 of 6, the survivor count [10] was 0 of 6 and the survivor count [11] was 0 of 6.

With O=NN(C(=O)NCCCl)c1[nH]c(=O)ncc1Cl the survivor count [8] was 0 of 6.

CCOC(=O)C1=C(C)NC(=O)NC1c1coc2cc(C)cc(C)c2c1=O (stereo not drawn) was tested, and the survivor count [7] was 2 of 6 and the survivor count [8] was 0 of 6.

In the case of C[N+]1(CSc2ccccc2)CCCCC1, the survivor count [12] is reported as 2 of 6 and 3 of 6, the survivor count [13] is reported as 0 of 6 and the survivor count (dose: 200.0 mg/kg/injection, schedule: Q01DX009 (ip), vehicle: saline with Tween-80) is reported as 0 of 6.

[CH3][Sn]([CH3])([Br])[Br].c1ccc(-c2nnc(-c3ccccn3)nc2-c2ccccc2)cc1 was tested, and the survivor count [1] was 0 of 6.

With OC1CSCc2ccccc21 (stereo not drawn) the survivor count (dose: 400.0 mg/kg/injection, schedule: Q01DX009 (ip), vehicle: other) was 5 of 6.

With CC(=O)Oc1ccc[nH]c1=S the survivor count (dose: 12.5 mg/kg/injection, schedule: Q01DX009 (ip), vehicle: saline) was 0 of 6, the survivor count [14] was 0 of 6 and the survivor count [5] was 0 of 6. For the same compound, the survivor count [6] was 0 of 6, the survivor count [4] was 0 of 6 and the survivor count (dose: 400.0 mg/kg/injection, schedule: Q01DX008 (ip), vehicle: saline) was 3 of 6. The T/C [15] was 133 % of control [4 of 6 alive] and the survivor count [15] was 0 of 6.

[O-][n+]1c(Cl)c(Cl)[n+]([O-])c2[nH]c(C(F)(F)F)nc21 was tested, and the survivor count (dose: 400.0 mg/kg/injection, schedule: Q01DX005 (ip), vehicle: saline with Tween-80) was 3 of 6.

CC(C)N1CCOCC1 was tested, and the survivor count [4] was 0 of 6.

For CNC(=O)OCc1c(COC(=O)NC)c(-c2ccc(Cl)c(Cl)c2)n2c1CCC2, the T/C (dose: 12.5 mg/kg/injection, schedule: Q01DX009 (ip), vehicle: Klucel (hydroxypropylcellulose) (HPC)) was 136 % of control, the T/C (dose: 25.0 mg/kg/injection, schedule: Q01DX009 (ip), vehicle: Klucel (hydroxypropylcellulose) (HPC)) was 149 % of control and the survivor count (dose: 50.0 mg/kg/injection, schedule: Q01DX009 (ip), vehicle: Klucel (hydroxypropylcellulose) (HPC)) was 6 of 6. For the same compound, the survivor count [16] was 6 of 6 and the survivor count (dose: 200.0 mg/kg/injection, schedule: Q01DX009 (ip), vehicle: Klucel (hydroxypropylcellulose) (HPC)) was 4 of 6.

In the case of C[n+]1c2n(c3ccccc31)CCn1c-2[n+](C)c2ccccc21, the survivor count [16] is reported as 2 of 6.

With CN(C)C(=O)Oc1c(Cc2ccccc2)c(=O)n2c([nH]c3ccccc32)c1C#N the survivor count (dose: 240.0 mg/kg/injection, schedule: Q01DX005 (ip), vehicle: saline with Tween-80) was 6 of 6.

For CCN(CC)CCNc1ccc([N+](=O)[O-])c2sc3ccccc3c(=O)c12, the T/C [14] was 129 % of control, the T/C [12] was 142 and 144 % of control and the T/C [13] was 145 % of control. For the same compound, the survivor count [3] was 6 of 6.

In the case of COc1ccc(-c2cc(=O)c3c(O)cc(O)cc3o2)cc1, the survivor count (dose: 400.0 mg/kg/injection, schedule: Q04DX003 (ip), vehicle: saline with Tween-80) is reported as 6 of 6.

For CCN(CC)P(=O)(N1CC1C)N1CC1C (stereo not drawn), the T/C (dose: 50.0 mg/kg/injection, schedule: Q04DX003 (ip), vehicle: saline) was 140 % of control.
